PubChem BioAssay AID1671195 – Yale University – 2021

Purpose: 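Knockdowns that increase or decrease uptake of fluorescent LDL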 (primary screen)
Cells: human Huh7 hepatoma cells
Reagents: siRNA pool against human genes, 18 nM
Timing: about 2 to 2.5 days of knockdown, then 8 h LDL uptake
Treatment: DiI-labelled LDL at 30 µg/ml for 8 h, in lipoprotein-deficient serum medium
Read-out: 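Fluorescent LDL signal imaged in cells, scaled to the plate median, robust z-score for each replicate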
Reading the numbers: robust z-score: higher = more LDL uptake after knockdown
Hit rule: 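Active when two or more replicates show a robust z-score above 2 or below -2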
This is an unselected part of about 22,000 deposited reagents. In the full data, about 1,510 (6.9%) got an active call. 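Active includes knockdowns raising or lowering LDL uptake; positive z-scores mean more uptake, negative mean less.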 Entries without a mark were called inactive. Reagents against one gene are numbered here. Reagent sequences are not shown.

gene,reagent no.,"robust z-score, replicate 1","robust z-score, replicate 2","robust z-score, replicate 3"
DCXR,1,0.282,-0.347,-0.244
LOC440274 (retired record),1,3.06 (active),2.69,2.9
CASP6,1,-0.0664,0.96,-0.301
TMEM135,1,0.0445,-0.195,-0.27
LINC01122,1,0.134,0.223,0.353
RPS15AP34,1,-1.03,-0.632,-0.612
LOC387632 (retired record),1,2.28,1.53,1.61
YIPF4,1,-0.462,-0.683,0.323
SLC30A5,1,1.09,0.714,0.553
RPRD1A,1,-0.208,-1.81,0.337
TPP1,1,-0.519,-0.265,-0.938
TBC1D12,1,0.34,0.289,0.0988
MOB4,1,0.0812,-0.0706,0.00614
NUDT13,1,0.913,-1.21,-0.369
ENO3,1,0.769,-0.968,0.478
OR5M9,1,0.0562,0.502,1.2
LOC151451 (retired record),1,2.51,1.19,1.07
MCEMP1,1,-0.626,-0.214,-0.27
UTP15,1,-1.15,-1.13,-1.41
CRACR2B,1,0.291,0.479,0.404
SEC11C,1,1.39,0.814,1.54
LINC02003,1,-0.185,-0.564,-1.34
FLVCR2,1,-0.193,-0.0501,0.264
PADI4,1,-0.0776,0.461,-0.133
LOC402414 (retired record),1,-0.658,-0.447,-0.595
CS,1,-0.142,1.23,0.195
RAMP1,1,-0.131,-0.443,-0.273
PNPLA4,1,0.349,0.356,1.69
TMEM80,1,-1.42,-1.53,-1.54
CHIC2,1,1.44,2.37,1.4
LOC401589,1,-0.474,-0.428,-0.613
LOC387686 (retired record),1,-0.478,-0.111,0.124
MAP7D3,1,-1.5,-1.21,-1.58
LOC440194 (retired record),1,0.423,0.191,0.605
ZMYM1,1,0.715,0.343,0.563
F7,1,0.196,-0.0702,-0.265
CDH9,1,1.19,0.593,0.727
DMRTA1,1,-0.293,-0.619,-0.549
DDX19A,1,0.541,1.07,1.28
DDX19A,2,-1.59,-1.08,-0.972
ALG9,1,0.791,1.17,0.352
CLEC4F,1,-1.28,-0.769,-1.55
RNF151,1,0.243,0.201,-0.169
NFAT5,1,0.721,0.118,0.0565
LOC399919 (retired record),1,-0.818,-0.427,-0.31
GATAD2A,1,0.506,0.614,-0.152
SOWAHA,1,-0.31,1.87,1.31
SNX29P1,1,0.0443,-0.233,-0.361
LOC440158 (retired record),1,-1.1,-1.23,-1.05
TMEM52B,1,-0.578,-0.659,-1.52
DNAJC3,1,-0.935,0.0372,-0.504
CFAP65,1,0.604,0.684,0.797
NPHP1,1,0.198,-0.139,-0.286
LOC441158 (retired record),1,-0.0794,-0.562,-0.313
LOC401025 (retired record),1,-1.5,-1.81,-1.16
MTX3,1,0.515,0.778,0.667
JAKMIP2,1,-0.276,0.778,-0.0345
NT5DC2,1,0.773,0.193,-0.0441
ABHD1,1,0.0167,-0.45,-0.489
LILRA3,1,-0.445,-1.6,-0.908
ZIC2,1,-0.986,-1.23,-1.12
ADK,1,0.0399,0.518,-0.3
MELTF,1,-0.313,-1.11,-0.605
ZNF423,1,-1.03,-1.17,-0.459
ARSD,1,0.26,0.328,-0.17
DEFB114,1,-0.0903,-0.143,-0.525
LOC391258 (retired record),1,3.9 (active),3.43,3.22
FLOT2,1,-0.0917,-0.53,-0.472
